The results in this text go back to paper PMC4021842.

By UniProt entry, the sequences of proteins in these tests, tags left out.
UniProt Q9Y6Q9: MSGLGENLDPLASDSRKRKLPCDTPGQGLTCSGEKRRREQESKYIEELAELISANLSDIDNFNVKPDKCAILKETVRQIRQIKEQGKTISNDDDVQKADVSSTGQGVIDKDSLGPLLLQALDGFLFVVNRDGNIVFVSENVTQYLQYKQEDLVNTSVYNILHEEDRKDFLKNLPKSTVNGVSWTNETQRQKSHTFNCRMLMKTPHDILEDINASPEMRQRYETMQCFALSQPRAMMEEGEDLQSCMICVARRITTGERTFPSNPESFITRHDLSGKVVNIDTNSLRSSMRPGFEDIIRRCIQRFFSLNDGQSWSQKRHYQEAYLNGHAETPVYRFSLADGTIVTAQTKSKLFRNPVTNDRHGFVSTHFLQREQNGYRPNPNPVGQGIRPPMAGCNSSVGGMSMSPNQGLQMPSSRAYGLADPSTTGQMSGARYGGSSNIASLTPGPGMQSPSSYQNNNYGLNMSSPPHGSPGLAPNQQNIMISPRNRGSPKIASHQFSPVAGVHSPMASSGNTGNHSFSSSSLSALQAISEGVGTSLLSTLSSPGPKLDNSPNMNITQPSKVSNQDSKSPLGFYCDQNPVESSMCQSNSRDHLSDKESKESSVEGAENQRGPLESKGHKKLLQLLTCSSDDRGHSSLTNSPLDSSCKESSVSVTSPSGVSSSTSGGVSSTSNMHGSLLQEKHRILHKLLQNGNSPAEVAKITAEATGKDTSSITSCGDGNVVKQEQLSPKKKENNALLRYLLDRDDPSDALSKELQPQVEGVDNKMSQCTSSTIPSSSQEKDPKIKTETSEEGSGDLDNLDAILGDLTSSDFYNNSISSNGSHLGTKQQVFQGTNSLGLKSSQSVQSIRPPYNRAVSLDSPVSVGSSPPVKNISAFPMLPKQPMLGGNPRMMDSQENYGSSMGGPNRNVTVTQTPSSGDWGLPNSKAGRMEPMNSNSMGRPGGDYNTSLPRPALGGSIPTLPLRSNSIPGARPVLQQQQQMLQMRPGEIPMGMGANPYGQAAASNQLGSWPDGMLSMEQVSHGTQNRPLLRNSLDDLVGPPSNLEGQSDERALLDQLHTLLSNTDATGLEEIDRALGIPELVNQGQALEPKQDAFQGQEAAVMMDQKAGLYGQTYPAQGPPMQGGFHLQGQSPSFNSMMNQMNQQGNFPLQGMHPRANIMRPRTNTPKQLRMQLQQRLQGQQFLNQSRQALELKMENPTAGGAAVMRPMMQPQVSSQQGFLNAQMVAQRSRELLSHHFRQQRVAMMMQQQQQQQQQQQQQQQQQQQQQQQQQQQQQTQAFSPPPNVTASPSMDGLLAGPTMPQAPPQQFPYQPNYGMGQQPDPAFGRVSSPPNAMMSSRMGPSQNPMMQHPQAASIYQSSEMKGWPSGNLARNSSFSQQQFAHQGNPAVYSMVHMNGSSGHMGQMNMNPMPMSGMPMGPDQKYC

In the assay the target is T1, IKKβ (UniProt O14920).
T1 sequence: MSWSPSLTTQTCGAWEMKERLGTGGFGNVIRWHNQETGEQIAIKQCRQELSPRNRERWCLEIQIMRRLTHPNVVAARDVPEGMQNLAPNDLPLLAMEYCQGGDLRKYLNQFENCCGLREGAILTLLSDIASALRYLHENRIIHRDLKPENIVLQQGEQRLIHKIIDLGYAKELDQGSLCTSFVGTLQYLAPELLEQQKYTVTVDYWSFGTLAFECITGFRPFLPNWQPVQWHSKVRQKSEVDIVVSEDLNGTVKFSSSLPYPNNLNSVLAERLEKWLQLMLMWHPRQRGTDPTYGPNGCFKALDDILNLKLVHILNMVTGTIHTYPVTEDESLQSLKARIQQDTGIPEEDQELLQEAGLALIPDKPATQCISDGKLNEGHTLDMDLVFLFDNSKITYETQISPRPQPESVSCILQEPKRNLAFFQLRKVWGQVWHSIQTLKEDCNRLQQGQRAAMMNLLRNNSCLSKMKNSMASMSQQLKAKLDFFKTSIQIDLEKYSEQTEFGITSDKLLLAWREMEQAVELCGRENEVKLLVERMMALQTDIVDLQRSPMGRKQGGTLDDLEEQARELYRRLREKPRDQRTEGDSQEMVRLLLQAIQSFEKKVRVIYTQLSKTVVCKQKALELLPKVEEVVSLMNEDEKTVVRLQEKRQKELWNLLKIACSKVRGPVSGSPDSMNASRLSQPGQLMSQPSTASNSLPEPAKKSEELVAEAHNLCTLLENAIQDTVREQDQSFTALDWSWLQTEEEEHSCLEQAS
In words: co-IP; 293 T cell lysates immunoprecipitated by correspondent antibodies or control IgG, extensive washing, Western blotting; bait not stated. For orientation: Immunoblotting shows a protein as a band on a membrane.

No constants are given. Whether binding was seen depends on the method and setting. Binding seen in cells or lysates may run through a third protein. Some entries that bind do so weakly or less than the wild type.

Take “Steroid receptor coactivator 3 (SRC-3) (from UniProt Q9Y6Q9 1-1424)”: the binding entry is reported as “binds”.
